Experimental data as given in the supplement of paper PMC10849652.
The other results are listed elsewhere or left out.

Chains of the proteins cited; added tags and fusions are not shown. Lines headed by an entry give the natural chain unless they say otherwise; changes in a name come on top.
UniProt Q8NHG7: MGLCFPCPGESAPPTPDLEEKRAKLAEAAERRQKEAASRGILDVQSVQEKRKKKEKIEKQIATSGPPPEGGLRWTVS
UniProt P32856: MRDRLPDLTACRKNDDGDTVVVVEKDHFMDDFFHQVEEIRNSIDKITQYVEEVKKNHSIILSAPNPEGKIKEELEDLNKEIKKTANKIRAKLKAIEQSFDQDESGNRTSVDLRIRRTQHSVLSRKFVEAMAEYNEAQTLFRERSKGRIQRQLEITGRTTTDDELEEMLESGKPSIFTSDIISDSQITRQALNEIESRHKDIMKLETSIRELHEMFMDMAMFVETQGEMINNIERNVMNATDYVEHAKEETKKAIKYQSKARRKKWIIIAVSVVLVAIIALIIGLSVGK

Assays:
Assay in all cases: log2 fold change, soluble protein after heating vs DMSO (PISA); higher = thermal stabilisation; K562 lysate, 10 uM; active = over 0.2 and 3.5 SD of the protein, either way, in both replicates (recomputed)
[1] = compound: C1=CC=C(C=C1)[C@H](COC2=CC3=C(C=C2)NC(=O)N3)NC(=O)C4=CC=CN(C4=O)CC5=CC(=C(C=C5)F)F
How it was run: (§1)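 Soluble protein was defined as the supernatant remaining after 21,000xg for 90 min, following pooling of heated aliquots and adjustment to 0.5% NP-40 at 4°C. Before that, crude K562 extract at 1 mg/mL protein in PBS pH 7.4 with 1 mM MgCl2 was treated with 10 μM compound for 30 min and heated for 3 min across 48°C-58°C. Quantification used TMTpro 16plex LC-MS/MS with channel sums equalised, and values are log-two fold changes in thermal stability relative to solvent controls from duplicates.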

[2] = compound: CC1=C(SC2=C1C(=N[C@H](C3=NN=C(N32)C)CC(=O)N)C4=CC=C(C=C4)Cl)C
How it was run: as §1

[3] = compound: CC1=C2C(=CC=C1)N=C(N(C2=O)C3=CC=CC=C3C)CN4C=NC5=C(N=CN=C54)N
How it was run: as §1

[4] = compound: Cc1sc2c(c1C)C(c1ccc(Cl)cc1)=N[C@@H](CC(=O)OC(C)(C)C)c1nnc(C)n1-2
How it was run: as §1

[5] = compound: c1ccc([C@@H]2C[C@H]2NC2CCNCC2)cc1
How it was run: as §1

erlotinib = compound: C#Cc1cccc(Nc2ncnc3cc(OCCOC)c(OCCOC)cc23)c1 [erlotinib]
How it was run: as §1

[6] = compound: C/C(=N\NC(=O)C1=CC(=CC=C1)S(=O)(=O)N2CCOCC2)/C3=C(C=CC(=C3)Cl)O
How it was run: as §1

[7] = compound: C1=CC(=CC=C1C2=NC3=C(N2)C=C(C=C3)C(=O)N)OC4=CC=C(C=C4)Cl
How it was run: as §1

[8] = compound: C1=CC2=C(C=CC(=C2)/C=C\3/C(=O)NC(=NCC4=CC=CS4)S3)N=C1
How it was run: as §1

[9] = compound: C1=CC2=NC=CN=C2C=C1/C=C/3\C(=O)NC(=O)S3
How it was run: as §1

[10] = compound: C1=CC=C(C=C1)C2=NC(=C(N2)C3=CC=NC=C3)C4=CC(=C(C=C4)Cl)O
How it was run: as §1

[11] = compound: C1=CC=C2C(=C1)C3=NNC4=CC=CC(=C43)C2=O
How it was run: as §1

[12] = compound: C1CCN(C1)C(=O)NC2=CC=CC(=C2)NC3=NC=C(C(=N3)NCCC4=CN=CN4)Br
How it was run: as §1

[13] = compound: C1CN(CCC1(CC2=CC=C(C=C2)Cl)N)C3=NC=NC4=C3C=CN4
How it was run: as §1

IRAK-1-4 Inhibitor I = compound: C1COCCN1CCN2C3=CC=CC=C3N=C2NC(=O)C4=CC(=CC=C4)[N+](=O)[O-] [IRAK-1-4 Inhibitor I]
How it was run: as §1

ibrutinib = compound: C=CC(=O)N1CCC[C@@H](n2nc(-c3ccc(Oc4ccccc4)cc3)c3c(N)ncnc32)C1 [ibrutinib]
How it was run: as §1

[14] = compound: CC(=O)c1cnc2ccc(-c3cc(Cl)c(O)c(Cl)c3)nc2c1N[C@H]1CC[C@H](CN(C)C)CC1
How it was run: as §1

ralimetinib = compound: CC(C)(C)Cn1c(N)nc2ccc(-c3[nH]c(C(C)(C)C)nc3-c3ccc(F)cc3)nc21 [ralimetinib]
How it was run: as §1

[15] = compound: CC(C)(O)CC(=O)NCCn1ccc2ncnc(Nc3ccc(Oc4cccc(C(F)(F)F)c4)c(Cl)c3)c21
How it was run: as §1

[16] = compound: CC(C)C1=C2N=C(C=C(N2N=C1)NCC3=CC=CC=C3)NCCCCCCN
How it was run: as §1

[17] = compound: CC1=C(C(CC(=O)N1)C2=CC=C(C=C2)C(F)(F)F)C(=O)NC3=C(C=C4C(=C3)C=NN4)F
How it was run: as §1

[18] = compound: CC1=C(C2=C(C=C1)C(=O)C3=CC=CC=C3N2CCCN)C
How it was run: as §1

[19] = compound: CC1=C(C=C(C=C1)NC(=O)C2=CC(=CC=C2)C(C)(C)C#N)NC3=CC4=C(C=C3)N=CN(C4=O)C
How it was run: as §1

[20] = compound: CC1=C(C=C(C=C1)NC(=O)C2=CC(=CC=C2)N(C)C)NC(=O)C3=CC=C(C=C3)O
How it was run: as §1

[21] = compound: CC1=CC=C(C=C1)SC2=C3C=C(SC3=CN=C2)C(=O)N
How it was run: as §1

vemurafenib = compound: CCCS(=O)(=O)Nc1ccc(F)c(C(=O)c2c[nH]c3ncc(-c4ccc(Cl)cc4)cc23)c1F [vemurafenib]
How it was run: as §1

[22] = compound: CCCS(=O)(=O)Nc1ccc(F)c(C(=O)c2c[nH]c3ncc(Cl)cc23)c1F
How it was run: as §1

barasertib = compound: CCN(CCCOc1ccc2c(Nc3cc(CC(=O)Nc4cccc(F)c4)[nH]n3)ncnc2c1)CCOP(=O)(O)O [barasertib]
How it was run: as §1

[23] = compound: CC[C@@H]1C(=O)N(C)c2cnc(Nc3ccc(C(=O)NC4CCN(C)CC4)cc3OC)nc2N1C1CCCC1
How it was run: as §1

volasertib = compound: CC[C@@H]1C(=O)N(C)c2cnc(Nc3ccc(C(=O)N[C@H]4CC[C@H](N5CCN(CC6CC6)CC5)CC4)cc3OC)nc2N1C(C)C [volasertib]
How it was run: as §1

[24] = compound: CCn1c(C(=O)N(C2CC2)C2CC2)cc2c3c(ncn3C)c(Nc3cc(C)n(C)n3)nc21
How it was run: as §1

[25] = compound: CCn1cc(-c2ccnc3[nH]c(-c4cccc(CN(C)C)c4)cc23)c(-c2ccc(NC(=O)N(C)C)cc2)n1
How it was run: as §1

[26] = compound: CN1CCC(CNc2ccc3ncc(-c4cccc(OC(F)(F)F)c4)n3n2)CC1
How it was run: as §1

saracatinib = compound: CN1CCN(CCOc2cc(OC3CCOCC3)c3c(Nc4c(Cl)ccc5c4OCO5)ncnc3c2)CC1 [saracatinib]
How it was run: as §1

sotrastaurin = compound: CN1CCN(c2nc(C3=C(c4c[nH]c5ccccc45)C(=O)NC3=O)c3ccccc3n2)CC1 [sotrastaurin]
How it was run: as §1

alvocidib = compound: CN1CC[C@H](c2c(O)cc(O)c3c(=O)cc(-c4ccccc4Cl)oc23)[C@H](O)C1 [alvocidib]
How it was run: as §1

Tubastatin A = compound: CN1CCc2c(c3ccccc3n2Cc2ccc(C(=O)NO)cc2)C1 [Tubastatin A]
How it was run: as §1

[27] = compound: CNC(=O)C1=CC=CC=C1NC2=NC(=NC=C2Cl)NC3=C(C=C(C=C3)N4CCOCC4)OC
How it was run: as §1

defactinib = compound: CNC(=O)c1ccc(Nc2ncc(C(F)(F)F)c(NCc3nccnc3N(C)S(C)(=O)=O)n2)cc1 [defactinib]
How it was run: as §1

[28] = compound: CNc1nc(-c2ccc3c(N)n[nH]c3c2)cc(N2C[C@@H](C(=O)NC3CCCCC3)CC[C@H]2C)n1
How it was run: as §1

encorafenib = compound: COC(=O)N[C@@H](C)CNc1nccc(-c2cn(C(C)C)nc2-c2cc(Cl)cc(NS(C)(=O)=O)c2F)n1 [encorafenib]
How it was run: as §1

[29] = compound: COC(=O)[C@H](CCSC)NC(=O)C1=C(C=C(C=C1)NC[C@H](CS)N)C2=CC=CC=C2
How it was run: as §1

alisertib = compound: COc1cc(Nc2ncc3c(n2)-c2ccc(Cl)cc2C(c2c(F)cccc2OC)=NC3)ccc1C(=O)O [alisertib]
How it was run: as §1

[30] = compound: COc1cc2nc(-c3cc(F)ccc3O)nc(N[C@@H]3CNC[C@H]3C(C)(C)O)c2cc1OC
How it was run: as §1

gefitinib = compound: COc1cc2ncnc(Nc3ccc(F)c(Cl)c3)c2cc1OCCCN1CCOCC1 [gefitinib]
How it was run: as §1

lapatinib = compound: CS(=O)(=O)CCNCc1ccc(-c2ccc3ncnc(Nc4ccc(OCc5cccc(F)c5)c(Cl)c4)c3c2)o1 [lapatinib]
How it was run: as §1

pictilisib = compound: CS(=O)(=O)N1CCN(Cc2cc3nc(-c4cccc5[nH]ncc45)nc(N4CCOCC4)c3s2)CC1 [pictilisib]
How it was run: as §1

crizotinib = compound: C[C@@H](Oc1cc(-c2cnn(C3CCNCC3)c2)cnc1N)c1c(Cl)ccc(F)c1Cl [crizotinib]
How it was run: as §1

[31] = compound: C[C@H](C1=CC=C(C=C1)C(=O)NC2=C3C=CNC3=NC=C2)N
How it was run: as §1

duvelisib = compound: C[C@H](Nc1ncnc2nc[nH]c12)c1cc2cccc(Cl)c2c(=O)n1-c1ccccc1 [duvelisib]
How it was run: as §1

gandotinib = compound: Cc1cc(Nc2cc(CN3CCOCC3)c3nc(C)c(Cc4ccc(Cl)cc4F)n3n2)n[nH]1 [gandotinib]
How it was run: as §1

tozasertib = compound: Cc1cc(Nc2cc(N3CCN(C)CC3)nc(Sc3ccc(NC(=O)C4CC4)cc3)n2)n[nH]1 [tozasertib]
How it was run: as §1

doramapimod = compound: Cc1ccc(-n2nc(C(C)(C)C)cc2NC(=O)Nc2ccc(OCCN3CCOCC3)c3ccccc23)cc1 [doramapimod]
How it was run: as §1

bafetinib = compound: Cc1ccc(NC(=O)c2ccc(CN3CC[C@H](N(C)C)C3)c(C(F)(F)F)c2)cc1Nc1nccc(-c2cncnc2)n1 [bafetinib]
How it was run: as §1

[32] = compound: Cc1cccc(CC(=O)N2CCc3c2ccc(-c2cn(C)c4ncnc(N)c24)c3F)n1
How it was run: as §1

nilotinib = compound: Cc1cn(-c2cc(NC(=O)c3ccc(C)c(Nc4nccc(-c5cccnc5)n4)c3)cc(C(F)(F)F)c2)cn1 [nilotinib]
How it was run: as §1

[33] = compound: Cc1nc(Nc2n[nH]c3c2CN(C(=O)N[C@H](CN(C)C)c2ccccc2)C3(C)C)c2sccc2n1
How it was run: as §1

dasatinib = compound: Cc1nc(Nc2ncc(C(=O)Nc3c(C)cccc3Cl)s2)cc(N2CCN(CCO)CC2)n1 [dasatinib]
How it was run: as §1

[34] = compound: Cc1ncc(-c2ccnc(Nc3ccc(S(C)(=O)=O)cc3)n2)n1C(C)C
How it was run: as §1

[35] = compound: Cn1cc(-c2ccc3c(c2)CCN3C(=O)Cc2cccc(C(F)(F)F)c2)c2c(N)ncnc21
How it was run: as §1

quisinostat = compound: Cn1cc(CNCC2CCN(c3ncc(C(=O)NO)cn3)CC2)c2ccccc21 [quisinostat]
How it was run: as §1

tipifarnib = compound: Cn1cncc1[C@@](N)(c1ccc(Cl)cc1)c1ccc2c(c1)c(-c1cccc(Cl)c1)cc(=O)n2C [tipifarnib]
How it was run: as §1

[36] = compound: NC(=O)Nc1cc(-c2cccc(F)c2)sc1C(=O)N[C@H]1CCCNC1
How it was run: as §1

[37] = compound: NC(=O)c1cnc(N[C@@H]2CCCC[C@@H]2N)nc1Nc1cccc(-n2nccn2)c1
How it was run: as §1

[38] = compound: NC1(c2ccc(-c3nc4ccn5c(=O)[nH]nc5c4cc3-c3ccccc3)cc2)CCC1
How it was run: as §1

[39] = compound: NCC(=O)Nc1ccc(-n2nc(C(F)(F)F)cc2-c2ccc3c(ccc4ccccc43)c2)cc1
How it was run: as §1

vorinostat = compound: O=C(CCCCCCC(=O)Nc1ccccc1)NO [vorinostat]
How it was run: as §1

silmitasertib = compound: O=C(O)c1ccc2c(c1)nc(Nc1cccc(Cl)c1)c1ccncc12 [silmitasertib]
How it was run: as §1

[40] = compound: O=C1NC(=O)C(c2cnc3ccccn23)=C1c1cn2c3c(cc(F)cc13)CN(C(=O)N1CCCCC1)CC2
How it was run: as §1

entospletinib = compound: c1cn2cc(-c3ccc4cn[nH]c4c3)nc(Nc3ccc(N4CCOCC4)cc3)c2n1 [entospletinib]
How it was run: as §1

Measured: log2 fold change

SVIP (UniProt Q8NHG7)
inactive: [1] 0.02 | [2] -0.048 | [3] -0.052 | [4] -0.069 | [5] -0.028

STX2 (UniProt P32856)
inactive: erlotinib -0.077 | [6] 0.032 | [7] 0.045 | [8] 0.044 | [9] 0.011 | [10] 0.001 | [1] 0.062 | [11] -0.028 | [12] -0.002 | [13] 0.024 | IRAK-1-4 Inhibitor I -0.01 | ibrutinib 0.034 | [14] -0.007 | ralimetinib 0.026 | [15] -0.006 | [16] -0.071 | [17] 0.061 | [18] 0.023 | [19] -0.014 | [20] 0.003 | [2] 0.028 | [3] 0.006 | [21] -0.039 | vemurafenib 0.01 | [22] 0.004 | barasertib -0.014 | [23] 0.201 | volasertib -0.004 | [24] 0.02 | [25] 0.045 | [26] -0.024 | saracatinib 0.087 | sotrastaurin 0.039 | alvocidib -0.017 | Tubastatin A 0.042 | [27] 0.095 | defactinib -0.004 | [28] -0.166 | encorafenib -0.007 | [29] 0.004 | alisertib -0.02 | [30] 0 | gefitinib -0.023 | lapatinib -0.01 | pictilisib -0.032 | crizotinib -0.01 | [31] 0.011 | duvelisib 0.172 | gandotinib 0 | tozasertib 0.01 | doramapimod 0.008 | bafetinib -0.013 | [32] -0.006 | nilotinib -0.056 | [33] 0.022 | dasatinib -0.093 | [34] 0.068 | [4] -0.063 | [35] 0.119 | quisinostat -0.018 | tipifarnib 0.04 | [36] 0.001 | [37] -0.005 | [38] 0.016 | [39] -0.008 | vorinostat -0.12 | silmitasertib 0.015 | [40] -0.023 | [5] -0.026 | entospletinib -0.101
